Consider 28 compounds from the supplement of paper PMC10735217.

In this assay the test system is HEK293A TEAD-LUC reporter. Description: TEAD-luciferase reporter activity (YAP activation), robust Z score vs plate; higher = stronger YAP/TEAD activation. The settings on record: 24 h.

Structures can show the parent of a compound that is named as a salt. Some of the results follow. Single values are uncertain here, since repeats match poorly.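 The human kidney-derived cells carry a stably integrated construct of eight TEAD-binding elements driving luciferase, read by luminescence in a drug-repurposing library screen. A compound counts as a hit when its signal is more than five robust Z scores above the plate mean.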

For the compound `O=C(O)Cn1c(C(=O)Nc2nc(-c3ccccc3Cl)cs2)cc2ccccc21`, the TEAD-luciferase reporter activity is inactive: -0.403 (compound concentration: 200 nM), active: 7.88 (compound concentration: 2 uM) and active: 10.7 (compound concentration: 10 uM).
On the same counts, the results for `CCOC(=O)/C=C/C(=O)O` [monoethyl maleate] are inactive: -0.275, inactive: -1.8 and inactive: -1.19.
`CCc1cc(NCc2nc3c(Cl)ccc(Cl)c3o2)c(=O)[nH]c1C`: the TEAD-luciferase reporter activity by setting is: (compound concentration: 200 nM) inactive: -1.38; (compound concentration: 2 uM) inactive: -1.81; (compound concentration: 10 uM) inactive: -0.947.
Regarding `O=C1NCc2ccccc2CC12CCCN2Cc1ccc(F)cc1` (stereo not given), the TEAD-luciferase reporter activity was inactive: -0.119 (compound concentration: 200 nM) and inactive: -1.38 (compound concentration: 10 uM).
Regarding `CN(C)CCOC(c1ccccc1)c1ccccc1`, the TEAD-luciferase reporter activity reads like this: (compound concentration: 200 nM) inactive: -0.0598; (compound concentration: 10 uM) inactive: 3.92.
As to `CN(C)CCOC(c1ccccc1)c1ccccc1` [Diphenhydramine hydrochloride], under “compound concentration: 2 uM”, the TEAD-luciferase reporter activity is inactive: 0.46.
As for `COCC1=C(C(=O)OC)C(c2ccc(F)c(F)c2)N(C(=O)NCCCN2CCC(c3ccccn3)CC2)C(=O)N1` (stereo not given), the TEAD-luciferase reporter activity (compound concentration: 200 nM) is inactive: 0.338, the TEAD-luciferase reporter activity (compound concentration: 2 uM) is inactive: -1.11 and the TEAD-luciferase reporter activity (compound concentration: 10 uM) was inactive: -1.37.
Consider `NCCc1ccc(OCCCS(=O)(=O)CCOCCc2cccc3ccccc23)c2[nH]c(=O)sc12`, for which the TEAD-luciferase reporter activity by setting is: (compound concentration: 200 nM) inactive: -0.496; (compound concentration: 2 uM) inactive: -1.41; (compound concentration: 10 uM) inactive: -1.4.
As to `CC(C(=O)O)c1ccc(Nc2ccccc2C(=O)O)cc1` (stereo not given), the TEAD-luciferase reporter activity was inactive: -1.28 (compound concentration: 200 nM), inactive: 0.139 (compound concentration: 2 uM) and inactive: 1.24 (compound concentration: 10 uM).
Turning to `O=C(O)C[C@H]1CC[C@H](c2ccc(-c3ccc(Nc4ccc(C(F)(F)F)nc4)cn3)cc2)CC1` [Pradigastat], the TEAD-luciferase reporter activity (compound concentration: 2 uM) was inactive: -0.0791.
Turning to `O=C(O)C[C@H]1CC[C@H](c2ccc(-c3ccc(Nc4ccc(C(F)(F)F)nc4)cn3)cc2)CC1`, the TEAD-luciferase reporter activity runs as follows: (compound concentration: 200 nM) inactive: -1.58; (compound concentration: 10 uM) inactive: 0.185.
For the compound `COC(=O)C1=C(C)NC(C)=C(C(=O)OC(C)(C)CN(C)CCC(c2ccccc2)c2ccccc2)C1c1cccc([N+](=O)[O-])c1` (stereo not given) [Lercanidipine Hydrochloride], the TEAD-luciferase reporter activity reads like this: (compound concentration: 200 nM) inactive: 1.17; (compound concentration: 10 uM) inactive: 0.981.
Consider `COC(=O)C1=C(C)NC(C)=C(C(=O)OC(C)(C)CN(C)CCC(c2ccccc2)c2ccccc2)C1c1cccc([N+](=O)[O-])c1` (stereo not given) [lercanidipine immediate release], for which the TEAD-luciferase reporter activity (compound concentration: 2 uM) was inactive: -1.94.
For the compound `CCOc1ccc(-c2cc(C)cn2-c2ccc(S(N)(=O)=O)cc2)cc1`, the TEAD-luciferase reporter activity was inactive: -0.0858 (compound concentration: 200 nM), inactive: 0.786 (compound concentration: 2 uM) and inactive: -0.0817 (compound concentration: 10 uM).
`C[C@]12C=CC(=O)C=C1CC[C@@H]1C2=CC[C@]2(C)[C@@H](C(=O)CN3CCN(c4cc(N5CCCC5)nc(N5CCCC5)n4)CC3)CC[C@@H]12`: the TEAD-luciferase reporter activity runs as follows: (compound concentration: 200 nM) inactive: -0.635; (compound concentration: 2 uM) inactive: -1.33; (compound concentration: 10 uM) inactive: 0.245.
In the same order, the values of `CN1CC/C(=N\O)c2ccn(CCCCN3CCC(C(=O)c4ccc(F)cc4)CC3)c2C1=O` are inactive: -1.13, inactive: 1.16 and inactive: 0.874.
As for `O=C(NCCO)C1CCCN(c2nc(NCc3ccccn3)c3c(-c4ccccc4)csc3n2)C1` (stereo not given), the TEAD-luciferase reporter activity (compound concentration: 200 nM) was inactive: -0.485, the TEAD-luciferase reporter activity (compound concentration: 2 uM) is inactive: 2.75 and the TEAD-luciferase reporter activity (compound concentration: 10 uM) was inactive: -0.485.
On to `CN1CCc2c(-c3ccc(S(=O)(=O)N(C)C)cc3)cc3c(c2C1)NC(=O)/C3=N\OC(CCO)C(=O)[O-]` (stereo not given), for which the TEAD-luciferase reporter activity (compound concentration: 200 nM) is inactive: 2.69, the TEAD-luciferase reporter activity (compound concentration: 2 uM) is inactive: -0.0969 and the TEAD-luciferase reporter activity (compound concentration: 10 uM) was inactive: 0.372.
As for `C/C(=C(/CCOP(=O)(O)O)SC(=O)c1ccccc1)N(C=O)Cc1cnc(C)nc1N` [benfotiamine, Alterix], the TEAD-luciferase reporter activity reads like this: (compound concentration: 200 nM) inactive: 2.58; (compound concentration: 10 uM) inactive: -0.857.
For `C/C(=C(/CCOP(=O)(O)O)SC(=O)c1ccccc1)N(C=O)Cc1cnc(C)nc1N` [benfotiamine], the TEAD-luciferase reporter activity (compound concentration: 2 uM) is inactive: -0.479.
Take `CC(C)C(=O)N1Cc2ccccc2CC2(CCCCN2C)C1` (stereo not given): the TEAD-luciferase reporter activity reads like this: (compound concentration: 200 nM) inactive: 1.41; (compound concentration: 10 uM) inactive: 0.497.
Consider `CC(=O)NC(C)c1cc(Cl)ccc1C1CCN(C(=O)[C@@H]2CN(C(C)(C)C)C[C@H]2c2ccc(F)cc2F)CC1` (stereo not given in full), for which the TEAD-luciferase reporter activity runs as follows: (compound concentration: 200 nM) inactive: 1.77; (compound concentration: 2 uM) inactive: 1.03; (compound concentration: 10 uM) inactive: 0.488.
For the compound `CC1(c2cccc3ccccc23)NC(=O)NC1=O` (stereo not given), the TEAD-luciferase reporter activity (compound concentration: 200 nM) is inactive: -0.587, the TEAD-luciferase reporter activity (compound concentration: 2 uM) was inactive: -1.9 and the TEAD-luciferase reporter activity (compound concentration: 10 uM) is inactive: 3.77.
With `Cc1c(-c2ccnn2C)cc(C(=O)NCc2ccc(S(C)(=O)=O)cn2)c(=O)n1-c1cccc(C(F)(F)F)c1` [Alvelestat], the TEAD-luciferase reporter activity runs as follows: (compound concentration: 200 nM) inactive: 0.882; (compound concentration: 2 uM) inactive: -0.621; (compound concentration: 10 uM) inactive: 0.968.
Consider `O=C(NCC(=O)N1CC[C@H](N[C@H]2CC[C@@](O)(c3ccc(-c4ncccn4)cn3)CC2)C1)c1cccc(C(F)(F)F)c1`, for which the TEAD-luciferase reporter activity by setting is: (compound concentration: 200 nM) inactive: -1.45; (compound concentration: 2 uM) inactive: 1.51; (compound concentration: 10 uM) inactive: -0.814.
Regarding `Cc1[nH]cnc1CC1CCc2c(c3ccccc3n2C)C1=O` (stereo not given), the TEAD-luciferase reporter activity is inactive: -0.452 (compound concentration: 200 nM), inactive: -0.638 (compound concentration: 2 uM) and inactive: 1.8 (compound concentration: 10 uM).
Consider `O=C1CCC2(CCC(=O)c3ccccc32)C(=O)N1` (stereo not given), for which the TEAD-luciferase reporter activity (compound concentration: 200 nM) is inactive: -0.267, the TEAD-luciferase reporter activity (compound concentration: 2 uM) was inactive: -0.848 and the TEAD-luciferase reporter activity (compound concentration: 10 uM) is inactive: 1.76.
For `O=[N+]([O-])c1ccc2c(c1)[C@H](O)[C@@H](N1CCN(c3cccc4c3OCCO4)CC1)C2`, the TEAD-luciferase reporter activity reads like this: (compound concentration: 200 nM) inactive: -1.18; (compound concentration: 2 uM) inactive: -1.37; (compound concentration: 10 uM) inactive: -0.282.
